Values of other authors, collected in patent publication US12440519B2 (Iowa State University Research Foundation, Inc., priority 2017, dated 2025).
At least one structure is not confirmed: it was looked up by name or label, or the drawing left a doubt.

Details: IBD induced with 2,4-dinitrofluorbenzene; cited from earlier work

Compound: CC(C)C[C@H]1C(=O)N2CCC[C@H]2[C@]2(O)O[C@](NC(=O)[C@@H]3C=C4c5cccc6[nH]c(Br)c(c56)C[C@H]4N(C)C3)(C(C)C)C(=O)N12 [bromocriptine]
- effect on illness (mortality, histopathologic changes): significantly ameliorated illness
